Molecules are shown by their SMILES. ± gives the standard deviation of the averaged measurements. In all, about 3,800 compounds were measured (“cell shape (eccentricity) Z-score vs DMSO control”: median about 1.1, lowest 2% from about -4.7 on). Some of the results follow.

The experiment concerns human monocyte-derived macrophages (M0). Put plainly: cell shape (eccentricity) Z-score vs DMSO control; higher = more elongated, M2-like morphology. The settings on record: 20 µM; 24 h; macrophage state: M0 (M-CSF).
For `NCCCCCCCCCCNS(=O)(=O)c1cccc2c(Cl)cccc12`, the “cell shape (Z-score)” value is -0.874. Take `COc1cc(C(=O)OC[C@@]2(O)CO[C@H](OC3C(CO)OC(OC(C)/C=C/C4(O)C(C)CC(O)CC4(C)C)C(O)C3O)[C@@H]2O)cc(OC)c1O` (stereo partly drawn): the “cell shape (Z-score)” value is -1.76. As to `CC(=O)C1(O)Cc2c(O)c3c(c(O)c2C(OC2CC(N)C(O)C(C)O2)C1)C(=O)c1c(O)cccc1C3=O` (stereo not drawn), the “cell shape (Z-score)” value came to 2.12.

For `C[C@H](/N=C(/NC#N)Nc1cccc2ncccc12)c1ccccc1`, the “cell shape (Z-score)” value was determined as 2.21.

`CC1CC(=O)[C@]2(O)C(C(=O)OCCc3ccc(O)c(O)c3)=CO[C@@H](O[C@@H]3O[C@H](CO)[C@@H](O)[C@H](O)[C@H]3O)[C@H]12` (stereo partly drawn): the “cell shape (Z-score)” value is 3.81.

With `CCOC(=O)c1ncn2c1CN(C)C(=O)c1cc(F)ccc1-2`, the “cell shape (Z-score)” value came to 2.93. For the compound `COc1cc(OC2CCN(C)CC2)ccc1Nc1ncc2c(n1)n(C1CCCC1)c(=O)n2C`, the “cell shape (Z-score)” value came out at 3.21. Take `CCC(=O)NC1CCc2cccc(OC)c2C1` (stereo not drawn): the “cell shape (Z-score)” value is 2.05. Consider `OCCN1C[C@H](O)[C@@H](O)[C@H](O)[C@H]1CO`, for which the “cell shape (Z-score)” value was -0.354. Regarding `CC1OC(OCC2(C)C=C3C4CCC5C6(C)CCC(O)C(C)(COC7OC(CO)C(O)C(O)C7O)C6CCC5(C)C4(C)CCC3(C(=O)O)CC2)C(O)C(O)C1O` (stereo not drawn), the “cell shape (Z-score)” value is -0.575.

For the compound `COc1cc2[nH]c3ccccc3c2cc1C`, the “cell shape (Z-score)” value is 1.1 ± 0.9.

For `COc1ccc([C@@H](C)C(=O)c2ccc(O)cc2O)cc1`, the “cell shape (Z-score)” value was 2.46.

As to `COC(=O)/C=C/c1ccc(OC)c(/C=C/C(C)(C)O)c1`, the “cell shape (Z-score)” value was -0.516. With `COc1ccc(-c2cc(=O)c3c(O)c(OC)c(O[C@@H]4O[C@H](CO)[C@@H](O)[C@H](O)[C@H]4O[C@@H]4O[C@@H](C)[C@H](O)[C@@H](O)[C@H]4O)cc3o2)cc1`, the “cell shape (Z-score)” value was 2.34.

As for `CCCCCCCCCCCC[C@H](C(=O)O)[C@@H](C)C(=O)O`, the “cell shape (Z-score)” value is 1.94. As to `O=S(=O)(NCCNC/C=C/c1ccc(Br)cc1)c1cccc2cnccc12`, the “cell shape (Z-score)” value amounted to 7.14. Regarding `CN(CCOP(=O)(O)O)C(=N)N`, the “cell shape (Z-score)” value is -0.65. To `COc1cc(O[C@@H]2O[C@H](CO[C@H]3OC[C@](O)(CO)[C@H]3O)[C@@H](O)[C@H](O)[C@H]2O)cc(OC)c1OC` belongs 1.07; to `C[C@H]1O[C@@H](O[C@H]2C[C@H]3C(=O)C[C@]4(C)C(=CCC5[C@@]6(C)CC[C@H](O[C@@H]7OC[C@@H](O)[C@H](O)[C@H]7O)[C@@](C)(C=O)C6CC[C@]54C)[C@@H]3CC2(C)C)[C@H](O)[C@@H](O)[C@@H]1O[C@@H]1O[C@H](C(=O)O)[C@@H](O)[C@H](O)[C@H]1O` (stereo partly drawn), -1.43.

For `COc1cc(CC(C)C(C)Cc2ccc(O)c(OC)c2)ccc1O` (stereo not drawn), the “cell shape (Z-score)” value is 3.2. In the case of `Cc1cccc(N(C)C(=S)Oc2ccc3ccccc3c2)c1`, the “cell shape (Z-score)” value came out at 0.156. To `N=C1SC(=Cc2c[nH]nc2-c2ccc(F)cc2)C(=O)N1c1nccs1` belongs 0.227; to `O=C(O[C@@H]1Cc2c(O)cc(O)cc2O[C@@H]1c1ccc(O)c(O)c1)c1cc(O)c(O)c(O)c1`, 1.98; to `CNc1cc(OC)c(C(=O)N[C@@H]2CCN(Cc3ccccc3)[C@H]2C)cc1Cl`, -0.0116. As to `CN(C)CCOc1ccc(/C(=C(/CCCl)c2ccccc2)c2ccccc2)cc1`, the “cell shape (Z-score)” value turned out to be 2.07. Turning to `CC1=C(CC(=O)O)c2cc(F)ccc2/C1=C\c1ccc(S(C)=O)cc1` (stereo not drawn), the “cell shape (Z-score)” value amounted to 1.92. As to `Cc1cc(Nc2ncc3c(n2)N(C)C(=O)N(c2cc(NC(=O)c4cccc(C(F)(F)F)c4)ccc2C)C3)n(C)n1`, the “cell shape (Z-score)” value was found to be 29.7. Take `CC(=O)NC1CCN(C(=O)Nc2cc(-c3cccs3)ccc2N)CC1`: the “cell shape (Z-score)” value worked out at 8.82. The result for `CCC[C@@H]1C[C@@H](C(=O)N[C@H]([C@H]2O[C@H](SC)[C@H](O)[C@@H](O)[C@H]2O)[C@H](C)O)N(C)C1` reads 1.87. As for `Cc1cc(-c2ccccc2)nnc1NCCN1CCOCC1`, the “cell shape (Z-score)” value was -0.38. On to `COc1cc(O)c2c(c1)O[C@H](c1ccc(O)cc1)[C@@H](O)C2=O`, for which the “cell shape (Z-score)” value turned out to be 0.849.

On to `CC1CC(=O)C2C(O)(C1)CC(O)C13OC21C(=O)c1cccc(O)c1C3O` (stereo not drawn), for which the “cell shape (Z-score)” value was found to be 3.39 ± 2.6. The result for `CC(=O)NCCCN(CCCCN(CCCNC(=O)/C=C/c1ccc(O)cc1)C(C)=O)C(=O)/C=C/c1ccc(O)cc1` reads 1.03.

On to `Cc1cccc(-c2[nH]c(C(C)(C)C)nc2-c2ccc3nccnc3c2)n1`, for which the “cell shape (Z-score)” value was 4.84. To `CCN(CC)CCCCN1c2ccccc2Oc2ccc(Cl)cc21` belongs 1.58; to `CCc1cc(O)c(C)c(O)c1C=O`, 0.702 ± 3.1. Consider `CC(C)NCC(O)c1cc(O)cc(O)c1` (stereo not drawn), for which the “cell shape (Z-score)” value is -0.105. Regarding `O=C1CC(c2ccc(O)cc2)Oc2c1c(O)cc(O)c2C1C(=O)c2c(O)cc(O)cc2OC1c1ccc(O)c(O)c1` (stereo not drawn), the “cell shape (Z-score)” value was found to be 2.16 ± 0.28. In the case of `COCC(=O)O[C@]1(CCN(C)CCCc2nc3ccccc3[nH]2)CCc2cc(F)ccc2[C@@H]1C(C)C`, the “cell shape (Z-score)” value amounted to 3.53. On to `c1ccc(-c2n[nH]c3c2oc2ccccc23)cc1`, for which the “cell shape (Z-score)” value is 0.646. Consider `O=C(O)C1CCCN(CCC=C(c2ccccc2)c2ccccc2)C1` (stereo not drawn), for which the “cell shape (Z-score)” value came out at 0.298.

`CN(C)c1ccccc1CN1CCCN(Cc2ccccc2N(C)C)C1c1ccncc1`: the “cell shape (Z-score)” value came to 0.046. For `Nc1nc2ccc(Cl)cc2c2nc(-c3ccco3)nn12`, the “cell shape (Z-score)” value is -0.49. In the case of `COc1ccc([C@H]2Oc3cc(OC)cc(OC)c3C[C@H]2O)cc1`, the “cell shape (Z-score)” value worked out at 3.66. In the case of `COc1cc2c(cc1OC)[C@@H]1C(=O)c3ccc4c(c3O[C@@H]1CO2)C=CC(C)(C)O4`, the “cell shape (Z-score)” value was 3.13. To `O=C(Oc1cccc2ccccc12)c1ccccc1` belongs 2.78; to `C=C[C@H]1[C@H](O[C@@H]2O[C@H](CO)[C@@H](O)[C@H](O)[C@H]2O)OC=C(C(=O)OC)[C@H]1C[C@@H]1N[C@H](C(=O)O)Cc2c1[nH]c1ccccc21`, -0.0299 ± 0.99. With `C[C@]12CCC(=O)C=C1CC[C@@H]1C2CC[C@@]2(C)C1CC[C@@H]2C(=O)CO` (stereo partly drawn), the “cell shape (Z-score)” value was 2.88. As to `CC(=O)OCC(=O)[C@@]1(O)[C@H](C)CC2C3CCC4=CC(=O)C=C[C@]4(C)[C@@]3(F)[C@@H](O)C[C@@]21C` (stereo partly drawn), the “cell shape (Z-score)” value was -0.917. Regarding `O=C(O)Cc1ccc(OCCNC[C@H](O)c2ccccc2)cc1`, the “cell shape (Z-score)” value is -2.47. With `COc1ccccc1N1CCN(CCCNc2cc(=O)n(C)c(=O)n2C)CC1`, the “cell shape (Z-score)” value came out at 1.39. Consider `C[C@@H]1CC[C@]2(C)[C@H](CC[C@@H](O)[C@]2(C)O)[C@@]1(C)CC/C(=C/CO)CO`, for which the “cell shape (Z-score)” value is 0.548. As to `C/C(=C\C=C\[C@@H](C)[C@H]1CC[C@@]2(C)[C@@H]3CCC4C(C)(C)[C@@H](O[C@@H]5O[C@H](CO)[C@@H](O[C@@H]6O[C@@H](C)[C@H](O)[C@@H](O)[C@H]6O)[C@H](O)[C@H]5O[C@@H]5O[C@H](CO[C@@H]6O[C@H](CO)[C@@H](O)[C@H](O)[C@H]6O)[C@@H](O)[C@H](O)[C@H]5O[C@@H]5O[C@@H](C)[C@H](O)[C@@H](O)[C@H]5O)CC[C@@]45C[C@@]35CC[C@]12C)C(=O)N[C@@H]1C(=O)O[C@H](C)[C@@H]1C` (stereo partly drawn), the “cell shape (Z-score)” value was 0.54.

For the origin of these results see the supplement of paper PMC7858590.
